Results published in patent US9670221B2, “Furopyridines as bromodomain inhibitors” (GlaxoSmithKline Intellectual Property (No.2) Limited, priority 2013, dated 2017).
Where a name gives a salt, the structure may show the parent alone. Some entries share one result that the patent states for a list of compounds.

Tests used:
BRD4 BD1 over BRD4 BD2 = experiment: Selectivity for BRD4 BD1 over BRD4 BD2 from the TR-FRET assays; assay type: binding, Human
BRD4 BD1 = target: T1, BRD4 BD1 (Homo sapiens, UniProt O60885, Y390A); experiment: TR-FRET binding assay, BRD4 BD1 (mutant protein); settings: BRD4 (1-477) mutant, 10 nM protein
T1 construct: BRD4 (1-477) (Y97A) and (Y390A); made in house; host or cells: E. coli (pET15b vector)
Protocol: Time Resolved Fluorescence Resonance Energy Transfer (TR-FRET) Assay
Binding was assessed using a time resolved fluorescent resonance energy transfer binding assay. This utilises a 6 His purification tag at the N-terminal of the proteins as an epitope for an anti-6 His antibody labeled with Europium chelate (PerkinElmer AD0111) allowing binding of the Europium to the proteins which acts as the donor fluorophore. A small molecule, high affinity binder of the bromodomains BRD2, BRD3, BRD4 and BRDT has been labeled with Alexa Fluor647 (Reference Compound X) and this acts as the acceptor in the FRET pair.
Assay Principle: In the absence of a competing compound, excitation of the Europium causes the donor to emit at λ618 nm which excites the Alexa labelled bromodomain binding compound leading to an increased energy transfer that is measurable at λ647 […]. In the presence of a sufficient concentration of a compound that can bind these proteins, the interaction is disrupted leading to a quantifiable drop in fluorescent resonance energy transfer.
The binding of the compounds of formula (I) to Bromodomains BRD2, BRD3, BRD4 and BRDT was assessed using mutated proteins to detect differential binding to either Binding Domain 1 (BD1) or Binding Domain 2 (BD2) on the bromodomain. These single residue mutations in the acetyl lysine binding pocket greatly lower the affinity of the fluoroligand (Reference Compound X) for the mutated domain (>1000 fold selective for the non-mutated domain). Therefore in the final assay conditions, binding of the fluoroligand to the mutated domain cannot be detected and subsequently the assay is suitable to determine the binding of compounds to the single non-mutated bromodomain.
Protein production: Recombinant Human Bromodomains [(BRD2 (1-473) (Y113A) and (Y386A), BRD3 (1-435) (Y73A) and (Y348A) BRD4 (1-477) (Y97A) and (Y390A) and BRDT (1-397) (Y66A) and (Y309A)] were expressed in E. coli cells (in pET15b vector for BRD2/3/4 and in pET28a vector for BRDT) with a 6-His tag at the N-terminal. The His-tagged Bromodomain pellet was resuspended in 50 mM HEPES (pH7.5), 300 mM NaCl, 10 mM imidazole & 1 μl/mL protease inhibitor cocktail and extracted from the E. coli cells using sonication and purified using a nickel sepharose high performance column, the proteins were washed and then eluted with a linear gradient of 0-500 mM imidazole with buffer 50 mM HEPES (pH7.5), 150 mM NaCl, 500 mM imidazole, over 20 column volumes. Final purification was completed by Superdex 200 prep grade size exclusion column. Purified protein was stored at −80° C. in 20 mM HEPES pH 7.5 and 100 mM NaCl. Protein identity was confirmed by peptide mass fingerprinting and predicted molecular weight confirmed by mass spectrometry.
Protocol for Bromodomain BRD2, 3, 4 and T, BD1^+BD2 mutant assays: All assay components were dissolved in buffer composition of 50 mM HEPES pH7.4, 50 mM NaCl, 5% Glycerol, 1 mM DTT and 1 mM CHAPS. The final concentration of bromodomain proteins were 10 nM and the Alexa Fluor647 ligand was at Kd. These components were premixed and 5 μl of this reaction mixture was added to all wells containing 50 nl of various concentrations of test compound or DMSO vehicle (0.5% DMSO final) in Greiner 384 well black low volume microtitre plates and incubated in dark for 30 minutes at room temperature. 5 μl of detection mixture containing 1.5 nM final concentration anti-6His Europium chelate was added to all wells and a further dark incubation of at least 30 minutes was performed. Plates were then read on the Envision platereader, (λex=317 nm, donor λem=615 nm; acceptor λem=665 nm; Dichroic LANCE dual). Time resolved fluorescent intensity measurements were made at both emission wavelengths and the ratio of acceptor/donor was calculated and used for data analysis. All data was normalized to the mean of 16 high (inhibitor control—Example 11 of WO 2011/054846A1) and 16 low (DMSO) control wells on each plate. […]

Structure (SMILES) | selectivity for BRD4 BD1 over BRD4 BD2 (BRD4 BD1 pIC50 - BRD4 BD2 pIC50) (BRD4 BD1 over BRD4 BD2) | pIC50 in the BRD4 BD1 assay (BRD4 BD1)
CC(=O)Nc1cc(-c2cn(C)c(=O)c3cc(CN4CCCOCC4)oc23)ccn1 [Example 83, N-(4-(2-((1,4-oxazepan-4-yl)methyl)-5-methyl-4-oxo-4,5-dihydrofuro[3,2-c]pyridin-7-yl)pyridin-2-yl)acetamide] | ≥ 1 log unit | ≥ 6.0
CC(=O)Nc1cc(-c2cn(C)c(=O)c3cc(CN4CCCN(C)CC4)oc23)ccn1 [Example 85, N-(4-(5-methyl-2-((4-methyl-1,4-diazepan-1-yl)methyl)-4-oxo-4,5-dihydrofuro[3,2-c]pyridin-7-yl)pyridin-2-yl)acetamide] | ≥ 1 log unit | ≥ 6.0
CC(=O)Nc1cc(-c2cn(C)c(=O)c3cc(CN4CCCNCC4)oc23)ccn1 [Example 86, N-(4-(24(1,4-diazepan-1-yl)methyl)-5-methyl-4-oxo-4,5-dihydrofuro[3,2-c]pyridin-7-yl)pyridin-2-yl)acetamide dihydrochloride] | ≥ 1 log unit | ≥ 6.0
CC(=O)Nc1cc(-c2cn(C)c(=O)c3cc(CN4CCNC(=O)C4)oc23)ccn1 [Example 88, N-(4-(5-methyl-4-oxo-2-((3-oxopiperazin-1-yl)methyl)-4,5-dihydrofuro[3,2-c]pyridin-7-yl)pyridin-2-yl)acetamide] | ≥ 1 log unit | ≥ 6.0
CC(=O)Nc1cc(-c2cn(C)c(=O)c3cc(CN4CCC(NS(C)(=O)=O)CC4)oc23)ccn1 [Example 89, N-(4-(5-methyl-2-((4-(methylsulfonamido)piperidin-1-yl)methyl)-4-oxo-4,5-dihydrofuro[3,2-c]pyridin-7-yl)pyridin-2-yl)acetamide] | ≥ 1 log unit | ≥ 6.0
CC(=O)Nc1cc(-c2cn(C)c(=O)c3cc(CNC4CCCS(=O)(=O)C4)oc23)ccn1 (centres unmarked) [Example 94, N-(4-(2-(((1,1-dioxidotetrahydro-2H-thiopyran-3-yl)amino)methyl)-5-methyl-4-oxo-4,5-dihydrofuro[3,2-c]pyridin-7-yl)pyridin-2-yl)acetamide] | ≥ 1 log unit | ≥ 6.0
CC(=O)Nc1cc(-c2cn(C)c(=O)c3cc(CNC4CCS(=O)(=O)C4)oc23)ccn1 (centres unmarked) [Example 95, N-(4-(2-(((1,1-dioxidotetrahydrothiophen-3-yl)amino)methyl)-5-methyl-4-oxo-4,5-dihydrofuro[3,2-c]pyridin-7-yl)pyridin-2-yl)acetamide] | ≥ 1 log unit | ≥ 6.0
CC(=O)Nc1cc(-c2cn(C)c(=O)c3cc(CN4CCCN(C(C)=O)CC4)oc23)ccn1 [Example 104, N-(4-(2-((4-acetyl-1,4-diazepan-1-yl)methyl)-5-methyl-4-oxo-4,5-dihydrofuro[3,2-c]pyridin-7-yl)pyridin-2-yl)acetamide] | ≥ 1 log unit | ≥ 6.0
CC(=O)Nc1cc(-c2cn(C)c(=O)c3cc(CN4CCN(C(C)=O)CC4C)oc23)ccn1 (centres unmarked) [Example 106, N-(4-(2-((4-acetyl-2-methylpiperazin-1-yl)methyl)-5-methyl-4-oxo-4,5-dihydrofuro[3,2-c]pyridin-7-yl)pyridin-2-yl)acetamide] | ≥ 1 log unit | ≥ 6.0
CC(=O)Nc1cc(-c2cn(C)c(=O)c3cc(CN4CCN(S(C)(=O)=O)CC4=O)oc23)ccn1 [Example 109, N-(4-(5-methyl-2-((4-(methylsulfonyl)-2-oxopiperazin-1-yl)methyl)-4-oxo-4,5-dihydrofuro[3,2-c]pyridin-7-yl)pyridin-2-yl)acetamide] | ≥ 1 log unit | ≥ 6.0
